Data: PubChem BioAssay AID588499 (NMMLSC, 2011)
Among all 360,000 compounds or so, about 610 (0.17%) were called active. The shares of active, inactive and inconclusive entries below differ from those in the screen. No stated cut-off is given here; in the data, active means inhibition above about 30%; inconclusive means no clear call, values can overlap the other calls; inactive means below that.

The compounds below were run on Botulinum neurotoxin type A light chain protease (Clostridium botulinum A str. ATCC 3502) (assay: blockers of BoNT/A LC substrate cleavage – biochemical, flow cytometry, MLPCN library, primary screen (AID 588499; further: plate controls were buffer without enzyme for full effect and enzyme alone for no effect)). Settings: multiplex microsphere protease substrate cleavage, at 10 µM, hits give high values.

SMILES	inhibition
COc1ccc(S(=O)(=O)N2CCCOC2CNC(=O)C(=O)NCCCn2ccnc2)cc1OC (stereo unspecified)	inactive: -0.7%
Cc1ccccc1Cn1cc(NC(=O)c2noc3c2CC(C(C)(C)C)CC3)cn1 (stereo unspecified)	inconclusive: -1.2%
CC(C)(C)NC(=O)CN(Cc1cccs1)C(=O)CNS(=O)(=O)c1ccccc1	inconclusive: -8.1%
O=C(NCC1CCN(Cc2ccccc2)CC1)[C@H]1O[C@@H](n2ccc(=O)[nH]c2=O)[C@H](O)[C@@H]1O	inactive: 0.2%
CCn1cc(/C=C(\NC(=O)c2ccc(OC)c(OC)c2)C(=O)N2CCN(C)CC2)c2ccccc21	inactive: 0.6%
CC(O)Cc1nsc(NC(=O)c2ccc(Br)o2)n1 (stereo unspecified)	inconclusive: 32.2%
c1cc(-c2n[nH]c(-c3ccncc3)n2)ccn1	inactive: 0.6%
CCCS(=O)(=O)NCc1ccc2c(c1)cc(C)n2C	active: 69.3%
CCOc1ccc2nc(N(Cc3ccccc3)C(=O)CCNC(C)=O)sc2c1	inactive: 1.6%
CCCCCCSc1ccc([C@H]2N[C@@](CC(C)C)(C(=O)OC)[C@H]3C(=O)N(C)C(=O)[C@@H]23)cc1OC	inactive: -0.5%
O=C(Cn1c(C(F)(F)F)nc2ccccc21)OCC(=O)c1c[nH]c2ccccc12	active: 57.1%
Cn1c(=O)c(C(=O)c2ccccc2)nc2ccccc21	inactive: 0.7%
Cn1c(SCc2nc(-c3ccccc3)no2)nnc1-c1cccs1	inconclusive: 3.4%
Cc1ccc(N=Cc2ccc[nH]2)c(O)c1	inconclusive: 0.6%
CS(=O)(=O)Nc1ccccc1C(=O)Nc1cccc(Cl)c1	inconclusive: 4.3%
O=C(Nc1ccc(C(F)(F)F)cc1)C1CCCCN1S(=O)(=O)c1ccccc1 (stereo unspecified)	inactive: -0.7%
O=C(CN1C(=O)C2C3C=CC(C3)C2C1=O)Nc1ccc2nccnc2c1 (stereo unspecified)	inactive: -0.3%
Cc1ccc2nc(SCC(=O)NCCc3ccccc3)nc(=O)n2c1	inconclusive: 2.4%
Cc1ccc(S(=O)(=O)CC(=O)N(CCCN(C)C)c2nc3ccc(C)cc3s2)cc1	inconclusive: -1.7%
Cc1ccc(-n2cc(CNCC3CC(=O)N(C4CC4)C3)c(-c3cccc(C)c3)n2)cc1 (stereo unspecified)	inactive: 0.6%
CCN(CC)CCCOC(=O)C(OC(C)C)(c1ccccc1)c1ccccc1	active: 36.4%
COc1ccccc1N1CCN(Cc2ccc(O)c3ncccc23)CC1	inactive: -3.2%
CN(C)C(=O)c1coc2nc3ccccc3nc12	inconclusive: 10.5%

SMILES	inhibition
CCOC(=O)c1cc(OC(=O)c2ccccc2OC)n(-c2ccccc2)n1	inconclusive: 9.2%
COc1ccc(NC(=O)Cn2nc(C(F)(F)F)c3c2CCCC3)c(OC)c1	inconclusive: -2%
CCOC(=O)C1=CC[C@]2(C)c3c(c4ccccc4n3C)C(=O)C1N2C	inactive: -0.3%
CS(=O)(=O)Nc1ccc(C(=O)Nc2ccccc2-c2ccccc2)cc1	inactive: -2.7%
CCOc1ccccc1NC(=O)CSc1nnc(-c2cnccn2)n1C	inconclusive: -1.5%
CC(/C=C/C=C/c1ccccc1)=N/NC(=O)C(O)c1ccccc1 (stereo unspecified)	inconclusive: -2.6%
COc1ccccc1N=Nc1nc(-c2ccccc2)c(-c2ccccc2)[nH]1	inactive: 0.3%
O=C(Nc1ccc(F)cc1F)NC1CCN(Cc2c(F)cccc2Cl)CC1	inconclusive: 2.1%
O=C(c1ccco1)n1nc(-c2ccco2)nc1SCc1ccccc1	inactive: 2.6%
COc1ccc(/C=C(\C#N)C(=O)OCC(=O)NCc2ccco2)cc1	inactive: 0.3%
COc1cccc(CN2CC(C(=O)NCCN3CCOCC3)CCC2=O)c1 (stereo unspecified)	inactive: 0.1%
CC(C)(C)c1ccc(CC(=O)N2CCC2(C)C(=O)NCc2cccs2)cc1 (stereo unspecified)	inactive: -0.1%
O=C(CN1CCN(C(=O)c2ccco2)CC1)Nc1cc(S(=O)(=O)N2CCCC2)ccc1Cl	inactive: -1.1%
COc1cccc2ccc(CC(O)(c3ccccc3)c3ccccc3)nc12	inactive: -0.5%
CCC(C)Sc1ccc([C@@H]2[C@H]3C(=O)N(CC)C(=O)[C@H]3[C@]3(C(=O)OC)CCCCN23)cc1 (stereo partly specified)	inactive: -2.8%
CCOc1ccc(S(=O)(=O)NCCC2=CCCCC2)c2ccccc12	inconclusive: -4.6%
CCOc1ccccc1OCC(=O)Nc1nnc(COC)s1	inconclusive: 24.8%
COc1ccc(N=C2SC(C(N)=O)CC(=O)N2Cc2ccc3c(c2)OCO3)cc1 (stereo unspecified)	inconclusive: 11.2%
CC(C)Sc1nc2ccccc2c(=O)[nH]1	inconclusive: 1%
COc1ccc(C2OC(CCc3ccccc3)Cc3[nH]c(=S)[nH]c(=O)c32)cc1 (stereo unspecified)	inactive: 0.5%
CCCNC(=O)c1cc(C2CCCN(C(=O)C3CC3)C2)on1 (stereo unspecified)	inactive: 0.1%
O=C(OCC#CCSc1nc2ccccc2o1)c1ccco1	inconclusive: 4.4%
CC(=O)NCCN=Cc1sc2ccccc2c1O	inactive: -1.3%

Individual results from the list.
Entry for O=C(OCC#CCSc1nc2ccccc2o1)c1ccco1 under inhibition: inconclusive: 4.4%
Entry for CCOC(=O)c1cc(OC(=O)c2ccccc2OC)n(-c2ccccc2)n1 under inhibition: inconclusive: 9.2%

Following part:

SMILES	inhibition
CC(=O)Nc1cccc(NC(=O)CSc2nc(=O)n(CCCN3CCOCC3)c3c2CCC3)c1	inconclusive: 3.5%
Nc1ncc2[nH]c(N)nc2n1	inactive: -0.4%
O=C(c1ccc(F)cc1)C1CCN(Cc2cn[nH]c2-c2ccccc2)CC1	inconclusive: 4.2%
COc1cc2[nH]c(=O)n(CCCCCC(=O)NCCCN3CCC(C)CC3)c(=O)c2cc1OC	inactive: -0.4%
Cc1cccc2cc(C#N)c(NCc3ccccc3)nc12	inactive: 4.2%
OCc1nc2ccccc2n1CCCOc1ccc(Br)cc1	inconclusive: -1.6%
CC1=C(C(=O)N2CCOCC2)CC(CC(=O)NC2CCCCC2)C(=O)N1Cc1ccc(F)cc1 (stereo unspecified)	inactive: -0.2%
O=C(Nc1cccn(Cc2c(Cl)cccc2Cl)c1=O)c1c(Cl)cccc1Cl	inconclusive: -0.3%
CCc1nc2ccccc2c(=O)n1/N=C/c1ccc(OC)cc1	inconclusive: 4.7%
O=[N+]([O-])c1cccnc1Oc1ccccc1F	inconclusive: -49.9%
CCCCc1c(C)nc(N2CCCC2)[nH]c1=O	inconclusive: 4.7%
CN(Cc1ccccc1)C(=O)c1cnc2n(c1=O)CCS2	inconclusive: 5.7%
COC(=O)[C@H](C)NC(=O)NCCC1=CCCCC1	inconclusive: -29.3%
CN(C)/C=C1/C(=O)Nc2ccccc21	inconclusive: 2.2%
CCCCC(=O)NCc1ccc2c(c1)cc(C)n2C	active: 42.9%
Cc1cc2ccccc2c(=O)n1CC(=O)NCC(=O)N1CCN(c2cccc(Cl)c2)CC1	inconclusive: 1.8%
CC(=O)Nc1ccc(S(=O)(=O)NC2(C(F)(F)F)NC(=O)N(C3CCCCC3)C2=O)cc1 (stereo unspecified)	inconclusive: 0.7%
COC(=O)c1ccccc1NC(=O)CSc1nc(Nc2ccccc2)nc(N2CCOCC2)n1	inactive: -4.3%
Cc1sc(NC(=O)c2ccco2)nc1-c1ccc2c(c1)CC(C)N2C(=O)C1CC1 (stereo unspecified)	inconclusive: 1.8%
CC(C(=O)Nc1ccccn1)(c1ccccc1)c1ccccc1	inconclusive: 3.9%
N#CCSc1nnc(-c2ccc(S(=O)(=O)N3CCOCC3)cc2)n1CC1CCCO1 (stereo unspecified)	inconclusive: -0.9%
CN(c1ccccc1)c1nc(N)c([N+](=O)[O-])c(NCc2ccccc2)n1	inconclusive: -5.9%
O=S(=O)(Cc1ccccc1)N1CCc2ccccc2C1	inconclusive: -4.3%

SMILES	inhibition
O=c1c(-c2ccc(O)cc2O)coc2cc(O)cc(O)c12	inactive: 0.3%
C=CCN1C(=O)c2cccc3c(N4CCCCC4)ccc(c23)C1=O	active: 30.3%
O=C(c1ccccc1)c1ccc2nc(-c3ccco3)c(-c3ccco3)nc2c1	active: 42.5%
COc1ccc(-c2cc(C(F)(F)F)n3ncc(C(=O)NCc4ccco4)c3n2)cc1	inactive: 0.7%
Cc1nn(CC(=O)N(C)C)c(=O)c2ccccc12	inactive: 0.8%
O=C(OCc1ccccc1)c1cn(-c2ccccc2)nc1-c1ccncc1	inconclusive: -0.2%
CC(C)NC(=O)c1ccc(-c2ccc(F)c(F)c2)c2ccoc12	inactive: -0.1%
Cc1ccccc1NC(=O)c1cccc2nc3ccccc3nc12	inactive: -0.4%
O=C(CCCN1C(=O)/C(=C/c2ccccc2Cl)SC1=S)NNC(=O)c1cccnc1	inconclusive: 10%
O=C(Cn1c(C(F)(F)F)nc2ccccc21)c1ccc(Cl)cc1	inactive: 3%
Cc1ccccc1CSCCNC(=O)CSCc1ccc([N+](=O)[O-])cc1	inconclusive: 1.8%
O=C(CCc1ccc(S(=O)(=O)N2CCOCC2)cc1)NCCc1ccccn1	inconclusive: 0.2%
COc1ccc(Cl)cc1NC(=O)CN(C)C(=O)Cn1c(=O)oc2ccccc21	inconclusive: -3.6%
COc1ccc(Cl)cc1NC(=O)Nc1ccc(Br)cn1	inconclusive: -4%
C[C@H](NC(=O)c1ncn(Cc2ccccc2)c1C(=O)N[C@@H](C)c1ccccc1)c1ccccc1	inactive: 0.9%
CCc1ccc(N(C(=O)Cc2cccs2)C(C(=O)NC2CCCCC2)c2cn(C)nc2C)cc1 (stereo unspecified)	inconclusive: -2.6%
COCc1cn(-c2nc3ccccc3s2)nn1	inactive: 0.5%
COc1ccc2c(C)cc(SCC(=O)c3ccc4c(c3)OCO4)nc2c1	inconclusive: 1.8%
CCCCOCCCNC(=O)C[C@@H]1C[C@@]2(C(=O)OCC)CCC=C2N(Cc2cccc3ccccc23)C1=O	inactive: -0.4%
CC(=O)N(C)c1ccc(NC(=O)c2ccccc2C(=O)O)cc1	inconclusive: 2.8%
CN(C)c1nc(-c2cn(CCC#N)c3ccccc23)cs1	inconclusive: 48.3%
CCOC(=O)C1C(c2cccc(Cl)c2Cl)NC(=O)NC1(O)C(F)(F)F (stereo unspecified)	inconclusive: -2.6%

Three entries drawn at random from the list so far, as already listed:
SMILES	inhibition
C=CCN1C(=O)c2cccc3c(N4CCCCC4)ccc(c23)C1=O	active: 30.3%
COc1ccc(Cl)cc1NC(=O)CN(C)C(=O)Cn1c(=O)oc2ccccc21	inconclusive: -3.6%
COc1ccc2c(C)cc(SCC(=O)c3ccc4c(c3)OCO4)nc2c1	inconclusive: 1.8%
